Results from PubChem BioAssay AID540256 (National Center for Advancing Translational Sciences (NCATS), 2011).
Values joined by “and” are separate entries in the source; they are usually repeats but may differ in a detail not shown here. Identical values can stand only once. The whole screen tested about 300,000 compounds, of which about 3,700 (1.2%) were called active. The shares of active, inactive and inconclusive entries below differ from those in the screen. The call rests on the fitted dose curve; tested in HEK293 cells. Where the call is inconclusive, the potency comes from a doubtful curve fit.

Test: qHTS for Inhibitors of binding or entry into cells for Lassa Virus; further: nearly all actives have a fitted effect of over 50% in size
Details: Lassa virus pseudotype entry inhibition, cell reporter; activity change, negative = inhibition: at 37.9 µM (top of the series) unless noted
On the % scale 0 is the no-effect control and ±100 the full control effect; potency means the concentration at half of the fitted maximal effect.

SMILES	activity change, negative = inhibition	Potency
Cc1cc(C(=O)N(C)Cc2c(F)cccc2Cl)c2ccccc2n1	inactive: 13.3%	
Cn1nc(C(=O)NCc2ccc(F)cc2)c2c1-c1ccccc1SC2		inconclusive: 35.5 µM [inhibitor, single point]
CC1CCN(C(=O)CN2c3ccc(C(C)C)cc3-c3ccccc3S2(=O)=O)CC1		inconclusive: 0.794 µM [activator, full curve, poor fit]
Cc1cc(-c2ccccc2)n2nc(-c3cccc(Br)c3)cc2n1		inconclusive: 5.62 µM [activator, partial curve, poor fit]
CC(=O)c1ccc(OCC(O)CN2CCN(CCN3C(=O)c4cccc5cccc(c45)C3=O)CC2)cc1 (stereo not given)		inconclusive: 22.4 µM [inhibitor, single point]
COc1cc(CN(C)C(C)C(=O)Nc2ccc([N+](=O)[O-])cc2Cl)ccc1OC(F)F (stereo not given)		inconclusive: 10 µM [inhibitor, partial curve, poor fit]
CSc1ccc(-c2nc3c(C)cccn3c2Nc2ccc3c(c2)OCCO3)cc1	inactive: -17.4% [at 46.1 µM]	
CC(=Nc1ccccc1)c1sc2ccccc2c1O		inconclusive: 35.5 µM [inhibitor, single point]
O=c1[nH]c(CSc2ccccn2)nc2c1oc1ccccc12		active: 5.62 µM
CN(c1ccccc1)S(=O)(=O)c1ccc(Cl)c(C(=O)Nc2ccc(N3CCOCC3)cc2)c1		inconclusive: 12.6 µM [inhibitor, partial curve, poor fit]
CN(C)c1ccc(C(=O)C(O)c2ccc(C(C)(C)C)cc2)cc1 (stereo not given)		inconclusive: 3.66 µM [inhibitor, full curve, poor fit]
O=C(N/N=C/c1cccc2cccnc12)[C@H]1C[C@@H]1c1ccccc1		inconclusive: 3.98 µM [inhibitor, partial curve, poor fit]
O=C(CSc1nc(SCC(=O)NCc2ccccc2)n(-c2ccccc2)n1)NCc1ccccc1		inconclusive: 29.1 µM [inhibitor, single point]
CSc1nc(N)nc(SCC(=O)c2ccc(C)cc2)c1C#N		inconclusive: 7.94 µM [inhibitor, partial curve]
O=C(/C=C/c1cn(CC(O)CN2CCCCCC2)c2ccccc12)c1cccs1 (stereo not given)		inconclusive: 29.1 µM [inhibitor, single point]
N=c1n(CCN2CCCCC2)c2ccccc2n1CC(O)COc1ccccc1 (stereo not given)		inconclusive: 35.5 µM [inhibitor, single point] and inconclusive: 12.6 µM [inhibitor, partial curve, poor fit]
COCCCNC(=O)CCC(=O)Nc1ccc2nc(N3CCOCC3)cc(C)c2c1	inactive: 1.65%	
C=CCc1ccccc1OCC(O)CN(C(C)C)C(C)C (stereo not given)		inconclusive: 35.5 µM [inhibitor, single point]
Cc1cc(C)cc(N(C(=O)c2nsc(Cl)c2Cl)C(C(=O)NC2CCCC2)c2ccc(O)cc2)c1 (stereo not given)		inconclusive: 8.91 µM [inhibitor, partial curve, poor fit]
O=C(Nc1nccs1)c1cc(-c2ccccn2)nc2c(Cl)cccc12	inactive: -7.32%	
Cc1ccc(NC(=O)c2ccccc2-c2ccc(C(F)(F)F)cc2)cc1S(=O)(=O)N1CCOCC1		inconclusive: 32.6 µM [inhibitor, single point]
Cc1cc(C(=O)CSc2nc3ccccc3[nH]2)c(C)n1C		inconclusive: 25.9 µM [inhibitor, single point]

SMILES	activity change, negative = inhibition	Potency
CCC1(C)CC(CCNS(=O)(=O)c2ccc(C)cc2)(c2ccc(C)cc2)CCO1 (stereo not given)		inconclusive: 35.5 µM [inhibitor, single point]
Fc1ccccc1COc1ccccc1CNCc1ccncc1		inconclusive: 7.3 µM [inhibitor, partial curve, poor fit]
O=C(O)CNC(=O)C(CS)Cc1ccccc1 (stereo not given)		inconclusive: 0.92 µM [inhibitor, full curve]
O=C(COC(=O)c1cccs1)Nc1ccccc1Cl		inconclusive: 6.31 µM [activator, single point]
Cc1cc(NC(=O)CSc2ncnc3sc(C)c(C)c23)no1		inconclusive: 0.316 µM [inhibitor, partial curve, poor fit]
CSc1ccc(C(=O)Nc2ccc(-c3nc4ccccc4s3)c(O)c2)cc1	inactive: -18.6% [at 46.1 µM]	
CCOC(=O)c1nn(-c2ccc(Cl)cc2)c2nc(-c3ccc(C)cc3)c(C#N)c(=O)n12		inconclusive: 7.08 µM [inhibitor, partial curve]
Cn1c2ccccc2c2cnn(CC(=O)Nc3cccc(F)c3)c(=O)c21	inactive: -12%	
Cc1nonc1C(=O)N/N=C/c1ccc(O)c(O)c1		inconclusive: 12.6 µM [inhibitor, partial curve, poor fit]
O=C(C1CCCCC1)N1CCN(S(=O)(=O)c2ccc(Br)cc2)CC1		active: 17.8 µM
Cc1ccc2c(c1)C1CC(C)(O2)N(c2cccc(C(=O)N3CCN(c4ccccn4)CC3)c2)C(=O)N1 (stereo not given)		inconclusive: 35.5 µM [inhibitor, single point]
O=C1N/C(=N\N=C\c2cccs2)SC1Cc1cccc(Cl)c1 (stereo not given)		inconclusive: 7.94 µM [inhibitor, partial curve, poor fit]
CCOC(=O)C(=O)Nc1ccc2c(c1)OCO2	inactive: 8.04%	
CCN(C(=O)CN1C(=O)COc2ccc(S(=O)(=O)N3CCOCC3)cc21)c1cccc(C)c1	inactive: 6.5% [at 46.1 µM]	
O=C(NCCc1csc(-c2cccc(F)c2)n1)c1ccccc1C(F)(F)F	inactive: -11.9% [at 46.1 µM]	
COC(=O)CCN1CCC(c2cc(-c3cccc(C(F)(F)F)c3)n[nH]2)CC1	inactive: 29.5% [at 46.1 µM]	
Cc1nn(C(=O)c2nn(C)cc2[N+](=O)[O-])c(C)c1Br	inactive: 0.477%	
O=C(O)c1ccccc1C=NNc1ccc([N+](=O)[O-])cn1		inconclusive: 10 µM [activator, partial curve, poor fit]
O=[N+]([O-])c1cccc(CSc2nc3ccccc3[nH]2)c1		inconclusive: 2.06 µM [activator, full curve, poor fit]
CCC(=O)NCC(c1cccs1)N1CCOCC1 (stereo not given)	inactive: -4.41%	
CCCn1c(N2CCN(CC(=O)c3c[nH]c4ccccc34)CC2)nc2c1c(=O)[nH]c(=O)n2C		inconclusive: 0.891 µM [inhibitor, full curve]
CCCNC(=O)Cc1c(C)n(C(=O)c2ccc(Cl)cc2)c2ccc(OC)cc12		inconclusive: 11.2 µM [inhibitor, partial curve, poor fit]

SMILES	activity change, negative = inhibition	Potency
COc1ccc(NS(=O)(=O)c2cc(NC(=O)CNC(=O)c3cccc(OC)c3)ccc2C)cc1		inconclusive: 35.5 µM [inhibitor, single point]
CC(C)CNC(=S)NNC(=O)c1csc2c1CCC(C)C2 (stereo not given)	inactive: -4.99%	
COc1cc(C(F)(F)F)c(C(=O)N(C)c2ccc(Cl)cc2)cn1		inconclusive: 11.2 µM [inhibitor, single point]
Cc1ccnc(NC(=O)CCC(=O)N(CC(=O)NC(C)(C)C)c2ccc3c(c2)OCO3)c1		inconclusive: 35.5 µM [inhibitor, single point]
Cc1cccc(CCNC(=O)C2CCCN(c3ncnc4c3nc3n4CCCCC3)C2)c1 (stereo not given)		inconclusive: 35.5 µM [inhibitor, single point]
COc1ccc(NC(=O)Nc2cc(C)ccc2F)cc1	inactive: 3.44%	
COc1ccc(CN(CCc2c[nH]c3ccccc23)Cc2ccc(OC)cc2)cc1		inconclusive: 7.08 µM [inhibitor, full curve]
COc1ccc(C(C(=O)NC2CCCCC2)N(Cc2cccs2)C(=O)Cc2c[nH]c3ccccc23)cc1OC (stereo not given)		inconclusive: 10.3 µM [inhibitor, partial curve, poor fit]
O=c1[nH][nH]c2cc([N+](=O)[O-])ccc12	inactive: -16.3% [at 46.1 µM]	
Cc1nc2sc(-c3ccccc3)cc2c(=O)n1/N=C/N(C)C		inconclusive: 7.94 µM [activator, partial curve, poor fit]
CC(C)C(=O)NC(Nc1cc(C(F)(F)F)ccc1Cl)C(Cl)(Cl)Cl (stereo not given)		inconclusive: 3.66 µM [activator, partial curve, poor fit]
CCOC(=O)C1(CCCc2ccccc2)CCN(C(=O)c2cncs2)CC1		inconclusive: 8.91 µM [inhibitor, partial curve, poor fit]
COc1cc(SC)ccc1C(=O)NCCOc1ccc(F)cc1		inconclusive: 3.55 µM [activator, single point]
c1ccc(-c2nc(N3CCN(c4ccccc4)CC3)nc(-n3ccnc3)n2)cc1		inconclusive: 29.1 µM [inhibitor, single point]
Cc1nn(-c2ccccc2)c(Cl)c1C(=O)Nc1ccc(N2CCOCC2)cc1		inconclusive: 0.447 µM [inhibitor, single point]
CCC(C)(C)n1nnnc1C(c1cc2ccc(OC)cc2[nH]c1=O)N1CCN(C2CCCCC2)CC1 (stereo not given)	inactive: 16.1%	
CCC1CN(C(=O)NCc2ccccc2)c2cc(C)ccc2O1 (stereo not given)		inactive and inconclusive: 7.94 µM [inhibitor, partial curve, poor fit]
O=c1oc2ccccc2cc1-c1csc(NN=C2CCCCC2)n1		inconclusive: 23.1 µM [activator, partial curve, poor fit]
Cc1cc(S(=O)(=O)N2CCN(c3ccc(F)cc3)CC2)ccc1-n1cnnn1	inactive: -6.25%	
CCOc1ccc(C(=O)c2cc([N+](=O)[O-])ccc2N2CCOCC2)cc1		inconclusive: 0.291 µM [inhibitor, full curve, poor fit]
O=S(=O)(c1ccccc1)c1nc(-c2ccc(Cl)cc2)oc1NCCCN1CCOCC1		inconclusive: 5.01 µM [inhibitor, full curve, poor fit]
